Results are given in words; binding and its absence hold for the method and conditions named. Binding seen in cells or lysates may run through a third protein. Some entries that bind do so weakly or less than the wild type.
Tests used:
[1] = target: aryl hydrocarbon receptor (human (endogenous in HeLa, A549, Hep3B, T-47D, MDA-MB-468)) (UniProt P35869); experiment: proximity ligation; Duolink in situ kit on methanol-fixed A549, Hep3B, T-47D and MDA-MB-468 cells, with or without CQ; mouse anti-AHR A-3x with rabbit anti-LC3B or rabbit anti-p62
[2] = target: aryl hydrocarbon receptor (human (endogenous in HeLa, A549, Hep3B, T-47D, MDA-MB-468)) (UniProt P35869); experiment: co-IP; 1-2 mg whole-cell lysate of wild type HeLa cells after 40 uM CQ for 6 h; AHR precipitated with anti-AHR monoclonal antibody A-3x and Protein G Dynabeads overnight at 4 °C; 25 mM HEPES pH 7.4, 0.15 M NaCl, 1 mM EDTA, 1 mM DTT, 10% glycerol, 0.05% Tween-20, 1 mg/mL BSA; Western blot for p62
[3] = target: aryl hydrocarbon receptor (human (endogenous in HeLa, A549, Hep3B, T-47D, MDA-MB-468)) (UniProt P35869); experiment: proximity ligation; Duolink in situ kit on methanol-fixed wild type and p23 knockdown HeLa cells, with or without 40 uM CQ for 6 h; mouse anti-AHR A-3x with rabbit anti-LC3B or rabbit anti-p62

The chains behind the UniProt entries cited, without tags or fusion partners. Residues count along the entry.
UniProt P35869, residues 11-848: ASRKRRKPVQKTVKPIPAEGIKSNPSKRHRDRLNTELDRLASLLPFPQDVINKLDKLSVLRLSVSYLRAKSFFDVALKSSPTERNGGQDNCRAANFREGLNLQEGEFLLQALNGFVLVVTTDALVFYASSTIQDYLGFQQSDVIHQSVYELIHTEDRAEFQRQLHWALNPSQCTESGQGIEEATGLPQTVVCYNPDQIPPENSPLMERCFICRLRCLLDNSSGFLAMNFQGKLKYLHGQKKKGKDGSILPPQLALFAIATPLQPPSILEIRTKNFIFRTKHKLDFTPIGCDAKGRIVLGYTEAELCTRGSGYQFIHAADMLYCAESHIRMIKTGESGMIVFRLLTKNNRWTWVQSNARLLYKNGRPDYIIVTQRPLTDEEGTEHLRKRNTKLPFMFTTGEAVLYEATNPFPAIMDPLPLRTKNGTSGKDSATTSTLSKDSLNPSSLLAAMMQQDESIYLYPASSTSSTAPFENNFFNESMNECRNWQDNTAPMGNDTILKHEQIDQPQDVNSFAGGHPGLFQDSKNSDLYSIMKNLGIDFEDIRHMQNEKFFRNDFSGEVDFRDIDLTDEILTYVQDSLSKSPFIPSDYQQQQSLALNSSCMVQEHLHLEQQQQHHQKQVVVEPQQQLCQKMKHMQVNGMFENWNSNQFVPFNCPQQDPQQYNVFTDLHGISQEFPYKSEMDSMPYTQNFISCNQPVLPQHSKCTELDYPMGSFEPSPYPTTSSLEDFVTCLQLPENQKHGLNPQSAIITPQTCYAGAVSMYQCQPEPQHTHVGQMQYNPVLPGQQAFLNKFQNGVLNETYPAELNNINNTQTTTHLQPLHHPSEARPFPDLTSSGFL

Measured: binding

p62 (from UniProt Q13501 1-440)
binds: all assays above
